In the supplement of paper PMC8728848:
The list shows a part of the results.

Experiments:
Assay in all cases: glycan array binding signal (z-score within array); higher = stronger binding
Settings in all cases: glycan notation: IUPAC condensed, linker removed
[1] = molecular target: Gal(b1-3)GlcNAc(b1-6)[Gal(b1-3)]GalNAc
How it was run: (§1)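 Glycan array data were curated from 3228 arrays in the Consortium for Functional Glycomics database and kept only where the protein sequence was available. Glycan names were converted to IUPAC-condensed notation, and columns mapping to the same glycan were averaged. The binding signal is a within-array Z-score, averaged across arrays of the same protein sequence at different concentrations or buffers and across linkers. Negative Z-scores can be read as non-binding.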

Gal(b1-3)GlcNAc6S = molecular target: Gal(b1-3)GlcNAc6S
How it was run: as §1

[2] = molecular target: Gal(b1-3)[Fuc(a1-4)]GlcNAc
How it was run: as §1

[3] = molecular target: Gal(b1-3)[Fuc(a1-4)]GlcNAc(b1-2)Man
How it was run: as §1

[4] = molecular target: Gal(b1-3)[Fuc(a1-4)]GlcNAc(b1-2)Man(a1-3)[Gal(b1-3)[Fuc(a1-4)]GlcNAc(b1-2)Man(a1-6)]Man(b1-4)GlcNAc(b1-4)[Fuc(a1-6)]GlcNAc
How it was run: as §1

[5] = molecular target: Gal(b1-3)[Fuc(a1-4)]GlcNAc(b1-3)Gal(b1-3)[Fuc(a1-4)]GlcNAc
How it was run: as §1

[6] = molecular target: Gal(b1-3)[Fuc(a1-4)]GlcNAc(b1-3)Gal(b1-4)[Fuc(a1-3)]GlcNAc
How it was run: as §1

[7] = molecular target: Gal(b1-3)[Fuc(a1-4)]GlcNAc(b1-6)GalNAc
How it was run: as §1

[8] = molecular target: Gal(b1-3)[GlcNAc(b1-6)]GalNAc
How it was run: as §1

[9] = molecular target: Gal(b1-3)[Neu5Ac(a2-6)]GalNAc
How it was run: as §1

[10] = molecular target: Gal(b1-3)[Neu5Ac(a2-6)]GlcNAc(b1-4)Gal(b1-4)Glc
How it was run: as §1

[11] = molecular target: Gal(b1-3)[Neu5Ac(b2-6)]GalNAc
How it was run: as §1

Gal(b1-4)Gal = molecular target: Gal(b1-4)Gal
How it was run: as §1

[12] = molecular target: Gal(b1-4)GalNAc(a1-3)[Fuc(a1-2)]Gal(b1-4)GlcNAc
How it was run: as §1

[13] = molecular target: Gal(b1-4)GalNAc(b1-3)[Fuc(a1-2)]Gal(b1-4)GlcNAc
How it was run: as §1

Gal(b1-4)Glc = molecular target: Gal(b1-4)Glc
How it was run: as §1

Gal(b1-4)Glc6S = molecular target: Gal(b1-4)Glc6S
How it was run: as §1

Gal(b1-4)GlcNAc = molecular target: Gal(b1-4)GlcNAc
How it was run: as §1

[14] = molecular target: Gal(b1-4)GlcNAc(a1-6)Gal(b1-4)GlcNAc
How it was run: as §1

Gal(b1-4)GlcNAc(b1-2)Man = molecular target: Gal(b1-4)GlcNAc(b1-2)Man
How it was run: as §1

[15] = molecular target: Gal(b1-4)GlcNAc(b1-2)Man(a1-3)Man(b1-4)GlcNAc(b1-4)GlcNAc
How it was run: as §1

[16] = molecular target: Gal(b1-4)GlcNAc(b1-2)Man(a1-3)[Gal(b1-4)GlcNAc(b1-2)Man(a1-6)]Man(b1-4)GlcNAc(b1-4)GlcNAc
How it was run: as §1

[17] = molecular target: Gal(b1-4)GlcNAc(b1-2)Man(a1-3)[Gal(b1-4)GlcNAc(b1-2)Man(a1-6)]Man(b1-4)GlcNAc(b1-4)[Fuc(a1-6)]GlcNAc
How it was run: as §1

[18] = molecular target: Gal(b1-4)GlcNAc(b1-2)Man(a1-3)[Gal(b1-4)GlcNAc(b1-2)Man(a1-6)][Gal(b1-4)GlcNAc(b1-4)]Man(b1-4)GlcNAc(b1-4)[Fuc(a1-6)]GlcNAc
How it was run: as §1

[19] = molecular target: Gal(b1-4)GlcNAc(b1-2)Man(a1-3)[Gal(b1-4)GlcNAc(b1-2)Man(a1-6)][GlcNAc(b1-4)]Man(b1-4)GlcNAc(b1-4)[Fuc(a1-6)]GlcNAc
How it was run: as §1

[20] = molecular target: Gal(b1-4)GlcNAc(b1-2)Man(a1-3)[GlcNAc(b1-2)Man(a1-6)]Man(b1-4)GlcNAc(b1-4)GlcNAc
How it was run: as §1

[21] = molecular target: Gal(b1-4)GlcNAc(b1-2)Man(a1-3)[GlcNAc(b1-4)][Gal(b1-4)GlcNAc(b1-2)Man(a1-6)]Man(b1-4)GlcNAc(b1-4)GlcNAc
How it was run: as §1

[22] = molecular target: Gal(b1-4)GlcNAc(b1-2)Man(a1-3)[Man(a1-6)]Man(b1-4)GlcNAc(b1-4)GlcNAc
How it was run: as §1

[23] = molecular target: Gal(b1-4)GlcNAc(b1-2)Man(a1-6)Man(b1-4)GlcNAc(b1-4)GlcNAc
How it was run: as §1

[24] = molecular target: Gal(b1-4)GlcNAc(b1-2)Man(a1-6)[GlcNAc(b1-2)Man(a1-3)]Man(b1-4)GlcNAc(b1-4)GlcNAc
How it was run: as §1

[25] = molecular target: Gal(b1-4)GlcNAc(b1-2)Man(a1-6)[Man(a1-3)]Man(b1-4)GlcNAc(b1-4)GlcNAc
How it was run: as §1

[26] = molecular target: Gal(b1-4)GlcNAc(b1-2)[Gal(b1-4)GlcNAc(b1-4)]Man(a1-3)[Gal(b1-4)GlcNAc(b1-2)Man(a1-6)]Man(b1-4)GlcNAc(b1-4)GlcNAc
How it was run: as §1

[27] = molecular target: Gal(b1-4)GlcNAc(b1-2)[Gal(b1-4)GlcNAc(b1-4)]Man(a1-3)[Gal(b1-4)GlcNAc(b1-2)[Gal(b1-4)GlcNAc(b1-6)]Man(a1-6)]Man(b1-4)GlcNAc(b1-4)GlcNAc
How it was run: as §1

[28] = molecular target: Gal(b1-4)GlcNAc(b1-2)[Gal(b1-4)GlcNAc(b1-4)]Man(a1-3)[GlcNAc(b1-4)][Gal(b1-4)GlcNAc(b1-2)Man(a1-6)]Man(b1-4)GlcNAc(b1-4)GlcNAc
How it was run: as §1

[29] = molecular target: Gal(b1-4)GlcNAc(b1-2)[Gal(b1-4)GlcNAc(b1-4)]Man(a1-3)[GlcNAc(b1-4)][Gal(b1-4)GlcNAc(b1-2)[Gal(b1-4)GlcNAc(b1-6)]Man(a1-6)]Man(b1-4)GlcNAc(b1-4)GlcNAc
How it was run: as §1

[30] = molecular target: Gal(b1-4)GlcNAc(b1-2)[Gal(b1-4)GlcNAc(b1-6)]Man(a1-6)[Gal(b1-4)GlcNAc(b1-2)Man(a1-3)]Man(b1-4)GlcNAc(b1-4)GlcNAc
How it was run: as §1

[31] = molecular target: Gal(b1-4)GlcNAc(b1-2)[Gal(b1-4)GlcNAc(b1-6)]Man(a1-6)[Gal(b1-4)GlcNAc(b1-2)Man(a1-3)]Man(b1-4)GlcNAc(b1-4)[Fuc(a1-6)]GlcNAc
How it was run: as §1

B1: Sp8391B-bot-388-20-388 (Bacteroides ovatus) (protein)
chain: GCQNNDENEQHYDNKLFISASNFTKEILFKAGDTNVETGLSVAIAKPEEHDIKVTMSPAPELLSTYKLAYYDETAVLLSEEHYSMPETSTTIKSGSIVSPELPIEFINTGELDIKTTYVLPVTIKSVEGIGVLQSAKTYYYVFRGASLINVVCNISRNRAYPDFKNDSKFNNLTENTMEILFKANSFPNTLNTLMGIESNYLLRIGDATIPNNQLQVATSVNNCTSADLQLESGKWYHVAVAFNKGNVKVYINGVEKLSGSTGKSSVSLGAKHTNEEDGSRCFWVGYSYKDDRYFDGVVSEVRIWNRALTAEEIQATNHFYTIEPESEGLIAYWKFDEGSGTVAKDYSVSGYDLTIEKEPKWESVSLPQ
glycan array binding signal (z-score) [1]: 0.989 | glycan array binding signal (z-score) (Gal(b1-3)GlcNAc6S): -0.822 | glycan array binding signal (z-score) [2]: -0.224 | glycan array binding signal (z-score) [3]: 0.017 | glycan array binding signal (z-score) [4]: 1.1 | glycan array binding signal (z-score) [5]: -0.572 | glycan array binding signal (z-score) [6]: 0.392 | glycan array binding signal (z-score) [7]: 0.047 | glycan array binding signal (z-score) [8]: -0.541 | glycan array binding signal (z-score) [9]: -0.208 | glycan array binding signal (z-score) [10]: -0.044 | glycan array binding signal (z-score) [11]: -0.578 | glycan array binding signal (z-score) (Gal(b1-4)Gal): -0.849 | glycan array binding signal (z-score) [12]: -1.68 | glycan array binding signal (z-score) [13]: -1.21 | glycan array binding signal (z-score) (Gal(b1-4)Glc): -0.183 | glycan array binding signal (z-score) (Gal(b1-4)Glc6S): -0.694 | glycan array binding signal (z-score) (Gal(b1-4)GlcNAc): 0.022 | glycan array binding signal (z-score) [14]: 1.56 | glycan array binding signal (z-score) (Gal(b1-4)GlcNAc(b1-2)Man): 0.113 | glycan array binding signal (z-score) [15]: -0.192 | glycan array binding signal (z-score) [16]: -0.612 | glycan array binding signal (z-score) [17]: 0.164 | glycan array binding signal (z-score) [18]: -0.182 | glycan array binding signal (z-score) [19]: -0.897 | glycan array binding signal (z-score) [20]: -0.556 | glycan array binding signal (z-score) [21]: -0.747 | glycan array binding signal (z-score) [22]: -0.622 | glycan array binding signal (z-score) [23]: -0.661 | glycan array binding signal (z-score) [24]: -0.167 | glycan array binding signal (z-score) [25]: -0.621 | glycan array binding signal (z-score) [26]: -0.277 | glycan array binding signal (z-score) [27]: -0.731 | glycan array binding signal (z-score) [28]: -0.27 | glycan array binding signal (z-score) [29]: 0.322 | glycan array binding signal (z-score) [30]: 2.39 | glycan array binding signal (z-score) [31]: 0.014
